Experimental data published in the supplement of paper PMC10626197.
Where a name gives a salt, the structure may show the parent alone. Some well-known active drugs show little effect in this data set, so a weak value is uncertain.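 The breast cancer cell line MCF7 was treated with drug pairs over a dose grid. Each plate included DMSO-only wells as the untreated reference and a doxorubicin series as the total-kill control. These viability readings have no hit threshold applied.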

Test system: MCF7
Experiment: cell viability relative to DMSO control (raw); higher = more viable cells
Conditions: exposure time 72 h
Experimental: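 MCF7 cells, 1000 cells/well in 384-well plates, treated with 6x6 dose matrices of drug pairs (1:3 serial dilutions, DMSO as lowest dose) for 72 h at 37 °C. Viability read by CellTiter-Glo luminescence, 3 biological replicates. Normalised viability sets 0% at the highest doxorubicin dose and 100% at the 0,0 µM control per combination.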

CO[C@H]1C(=O)[C@]2(C)[C@@H](OC)C[C@H]3OC[C@@]3(OC(C)=O)[C@H]2[C@H](OC(=O)c2ccccc2)[C@]2(O)C[C@H](OC(=O)[C@H](O)[C@@H](NC(=O)OC(C)(C)C)c3ccccc3)C(C)=C1C2(C)C [Cabazitaxel] + COc1cc2c(Oc3ccc(NC(=O)C4(C(=O)Nc5ccc(F)cc5)CC4)cc3F)ccnc2cc1OCCCN1CCOCC1 [Foretinib]
cell viability [%]
Conditions | drug 2 concentration 0 µM | drug 2 concentration 0.348765 µM | drug 2 concentration 1.0463 µM | drug 2 concentration 3.13889 µM | drug 2 concentration 9.41667 µM | drug 2 concentration 28.25 µM
drug 1 concentration 0.0184691 µM | 103 | 101 | 92 | 53.8 | 13.9 | 0.954
drug 1 concentration 0.0554074 µM | 111 | 109 | 86.3 | 57.9 | 12.9 | 1.3
drug 1 concentration 0.166222 µM | 102 | 100 | 94.6 | 57.6 | 12.4 | 1.33
drug 1 concentration 0.498667 µM | 114 | 112 | 95.5 | 56.8 | 14.6 | 1.17
drug 1 concentration 1.496 µM | 105 | 110 | 86.6 | 55.9 | 6.19 | 0.784

CO[C@H]1C(=O)[C@]2(C)[C@@H](OC)C[C@H]3OC[C@@]3(OC(C)=O)[C@H]2[C@H](OC(=O)c2ccccc2)[C@]2(O)C[C@H](OC(=O)[C@H](O)[C@@H](NC(=O)OC(C)(C)C)c3ccccc3)C(C)=C1C2(C)C [Cabazitaxel] + COc1cc2nc(N3CCN(C(=O)C4CCCO4)CC3)nc(N)c2cc1OC [Terazosin (hydrochloride dihydrate)]
cell viability [%]
Conditions | drug 2 concentration 0 µM | drug 2 concentration 0.0308642 µM | drug 2 concentration 0.0925926 µM | drug 2 concentration 0.277778 µM | drug 2 concentration 0.833333 µM | drug 2 concentration 2.5 µM
drug 1 concentration 0.0184691 µM | 91.8 | 96.5 | 90.4 | 93.1 | 93.2 | 97.2
drug 1 concentration 0.0554074 µM | 89.6 | 101 | 94.4 | 99.4 | 101 | 97.3
drug 1 concentration 0.166222 µM | 90.3 | 86.1 | 87.8 | 94 | 91.6 | 88.8
drug 1 concentration 0.498667 µM | 87.8 | 87.7 | 91.5 | 92.3 | 89.9 | 90.2
drug 1 concentration 1.496 µM | 90.6 | 94.2 | 94 | 93.3 | 93.4 | 86.2

CO[C@H]1C(=O)[C@]2(C)[C@@H](OC)C[C@H]3OC[C@@]3(OC(C)=O)[C@H]2[C@H](OC(=O)c2ccccc2)[C@]2(O)C[C@H](OC(=O)[C@H](O)[C@@H](NC(=O)OC(C)(C)C)c3ccccc3)C(C)=C1C2(C)C [Cabazitaxel] + COc1cc2ncnc(Nc3ccc(F)c(Cl)c3)c2cc1NC(=O)/C=C/CN1CCCCC1 [Dacomitinib]
cell viability [%]
Conditions | drug 2 concentration 0 µM | drug 2 concentration 0.246914 µM | drug 2 concentration 0.740741 µM | drug 2 concentration 2.22222 µM | drug 2 concentration 6.66667 µM | drug 2 concentration 20 µM
drug 1 concentration 0.0184691 µM | 109 | 105 | 100 | 88.3 | 34.1 | 0.525
drug 1 concentration 0.0554074 µM | 101 | 103 | 108 | 98.5 | 33.2 | 0.699
drug 1 concentration 0.166222 µM | 113 | 110 | 106 | 85.3 | 39.7 | 0.592
drug 1 concentration 0.498667 µM | 102 | 102 | 105 | 98.9 | 3.52 | 0.332
drug 1 concentration 1.496 µM | 109 | 108 | 109 | 96.9 | 37.6 | 0.755

CO[C@H]1C(=O)[C@]2(C)[C@@H](OC)C[C@H]3OC[C@@]3(OC(C)=O)[C@H]2[C@H](OC(=O)c2ccccc2)[C@]2(O)C[C@H](OC(=O)[C@H](O)[C@@H](NC(=O)OC(C)(C)C)c3ccccc3)C(C)=C1C2(C)C [Cabazitaxel] + COc1cc(Nc2ncc3c(n2)-c2ccc(Cl)cc2C(c2c(F)cccc2OC)=NC3)ccc1C(=O)O [Alisertib]
cell viability [%]
Conditions | drug 2 concentration 0 µM | drug 2 concentration 0.0617284 µM | drug 2 concentration 0.185185 µM | drug 2 concentration 0.555556 µM | drug 2 concentration 1.66667 µM | drug 2 concentration 5 µM
drug 1 concentration 0.0184691 µM | 83.2 | 80.2 | 77 | 81.6 | 81.6 | 76.5
drug 1 concentration 0.0554074 µM | 90.2 | 81.8 | 86.1 | 86.5 | 87.4 | 83.3
drug 1 concentration 0.166222 µM | 80.3 | 76.4 | 80.7 | 83.1 | 82.1 | 77.9
drug 1 concentration 0.498667 µM | 82.4 | 83.6 | 81.8 | 92.7 | 82 | 74.5
drug 1 concentration 1.496 µM | 78.5 | 89.7 | 91.2 | 103 | 91.8 | 76.1

CO[C@H]1C(=O)[C@]2(C)[C@@H](OC)C[C@H]3OC[C@@]3(OC(C)=O)[C@H]2[C@H](OC(=O)c2ccccc2)[C@]2(O)C[C@H](OC(=O)[C@H](O)[C@@H](NC(=O)OC(C)(C)C)c3ccccc3)C(C)=C1C2(C)C [Cabazitaxel] + Cc1ncc(NC(=O)c2ccc(CN3CCN(C)CC3)c(C(F)(F)F)c2)cc1Nc1nccc(-c2cccnc2)n1 [Flumatinib (mesylate)]
cell viability [%]
Conditions | drug 2 concentration 0 µM | drug 2 concentration 0.617284 µM | drug 2 concentration 1.85185 µM | drug 2 concentration 5.55556 µM | drug 2 concentration 16.6667 µM | drug 2 concentration 50 µM
drug 1 concentration 0.0184691 µM | 103 | 105 | 107 | 120 | 2.18 | 0.434
drug 1 concentration 0.0554074 µM | 105 | 107 | 112 | 119 | 1.87 | 0.472
drug 1 concentration 0.166222 µM | 95.7 | 104 | 107 | 110 | 30.3 | 0.669
drug 1 concentration 0.498667 µM | 92.3 | 93.3 | 99.8 | 98.1 | 1.23 | 0.389
drug 1 concentration 1.496 µM | 105 | 108 | 114.2 | 108 | 1.63 | 0.722

CO[C@H]1C(=O)[C@]2(C)[C@@H](OC)C[C@H]3OC[C@@]3(OC(C)=O)[C@H]2[C@H](OC(=O)c2ccccc2)[C@]2(O)C[C@H](OC(=O)[C@H](O)[C@@H](NC(=O)OC(C)(C)C)c3ccccc3)C(C)=C1C2(C)C [Cabazitaxel] + N#CCC1(n2cc(-c3ncnc4[nH]ccc34)cn2)CN(C2CCN(C(=O)c3ccnc(C(F)(F)F)c3F)CC2)C1 [Itacitinib]
cell viability [%]
Conditions | drug 2 concentration 0 µM | drug 2 concentration 0.185185 µM | drug 2 concentration 0.555556 µM | drug 2 concentration 1.66667 µM | drug 2 concentration 5 µM | drug 2 concentration 15 µM
drug 1 concentration 0.0184691 µM | 86.5 | 85.2 | 82 | 80.7 | 79.1 | 75.7
drug 1 concentration 0.0554074 µM | 78 | 73 | 95 | 97.2 | 80.1 | 66.4
drug 1 concentration 0.166222 µM | 96.5 | 98.7 | 93.3 | 96.7 | 91.7 | 82.1
drug 1 concentration 0.498667 µM | 75.8 | 84.6 | 89.8 | 90.2 | 77.4 | 61.1
drug 1 concentration 1.496 µM | 96.6 | 97.6 | 93.6 | 92.6 | 94.1 | 85.7

O=NN(CCCl)C(=O)NCCCl [Carmustine] + CN(C)CCCN1c2ccccc2CCc2ccc(Cl)cc21 [Clomipramine (hydrochloride)]
cell viability [%]
Conditions | drug 2 concentration 0 µM | drug 2 concentration 0.123457 µM | drug 2 concentration 0.37037 µM | drug 2 concentration 1.11111 µM | drug 2 concentration 3.33333 µM | drug 2 concentration 10 µM
drug 1 concentration 0.925926 µM | 104 | 96.1 | 100 | 86.9 | 100 | 78.6
drug 1 concentration 2.77778 µM | 97.1 | 91.9 | 99.4 | 89.6 | 93.9 | 73.1
drug 1 concentration 8.33333 µM | 93 | 92.8 | 102 | 87.5 | 90.6 | 78.4
drug 1 concentration 25 µM | 76.5 | 74.1 | 76.8 | 74.4 | 67.9 | 57.6
drug 1 concentration 75 µM | 53.2 | 43.8 | 45.9 | 49.1 | 45.3 | 32.3

C[C@@H](Oc1cc(-c2cnn(C3CCNCC3)c2)cnc1N)c1c(Cl)ccc(F)c1Cl [Crizotinib] + C=C1/C(=C\C=C2/CCC[C@]3(C)[C@@H]([C@H](C)CCCC(C)C)CC[C@@H]23)C[C@@H](O)C[C@@H]1O [Alfacalcidol]
cell viability [%]
Conditions | drug 2 concentration 0 µM | drug 2 concentration 0.617284 µM | drug 2 concentration 1.85185 µM | drug 2 concentration 5.55556 µM | drug 2 concentration 16.6667 µM | drug 2 concentration 50 µM
drug 1 concentration 0.0987654 µM | 87.1 | 80.6 | 81.1 | 78.1 | 64.1 | 0.741
drug 1 concentration 0.296296 µM | 89.9 | 79 | 79.1 | 75.8 | 59 | 0.631
drug 1 concentration 0.888889 µM | 81 | 76.4 | 71.4 | 70 | 47.9 | 0.297
drug 1 concentration 2.66667 µM | 45.6 | 41.5 | 40.9 | 32.3 | 19 | 0.273
drug 1 concentration 8 µM | 8.5 | 5.72 | 9.24 | 2.84 | 4.94 | 0.295

C[C@@H](Oc1cc(-c2cnn(C3CCNCC3)c2)cnc1N)c1c(Cl)ccc(F)c1Cl [Crizotinib] + CC(C)C[C@@H](C(=O)N[C@H](C(=O)OC1CCCC1)c1ccccc1)[C@H](O)C(=O)NO [Tosedostat]
cell viability [%]
Conditions | drug 2 concentration 0 µM | drug 2 concentration 0.246914 µM | drug 2 concentration 0.740741 µM | drug 2 concentration 2.22222 µM | drug 2 concentration 6.66667 µM | drug 2 concentration 20 µM
drug 1 concentration 0.0987654 µM | 110 | 101 | 92.6 | 79.9 | 78 | 64.8
drug 1 concentration 0.296296 µM | 118 | 102 | 95 | 91.7 | 82.4 | 69.5
drug 1 concentration 0.888889 µM | 107.4 | 86.7 | 85.9 | 77.5 | 70.7 | 58.6
drug 1 concentration 2.66667 µM | 72.9 | 61.5 | 63.8 | 61.1 | 53.8 | 47.2
drug 1 concentration 8 µM | 25.5 | 21 | 20 | 17.7 | 16.2 | 7.84

C[C@@H](Oc1cc(-c2cnn(C3CCNCC3)c2)cnc1N)c1c(Cl)ccc(F)c1Cl [Crizotinib] + CCOC(=O)C(C)(C)Oc1ccc(Cl)cc1 [Clofibrate]
cell viability [%]
Conditions | drug 2 concentration 0 µM | drug 2 concentration 0.0308642 µM | drug 2 concentration 0.0925926 µM | drug 2 concentration 0.277778 µM | drug 2 concentration 0.833333 µM | drug 2 concentration 2.5 µM
drug 1 concentration 0.0987654 µM | 106 | 117 | 110 | 114 | 113 | 114
drug 1 concentration 0.296296 µM | 120 | 121 | 129 | 112 | 118 | 116
drug 1 concentration 0.888889 µM | 107 | 105 | 101 | 113 | 108 | 108
drug 1 concentration 2.66667 µM | 78.5 | 76.8 | 77.6 | 83.9 | 80.3 | 80.7
drug 1 concentration 8 µM | 18.4 | 14.8 | 13.4 | 14.7 | 18.9 | 17.5
